Test results as given in publication doi:10.1101/2024.11.20.624382, “Reconstitution of SPO11-dependent double-strand break formation” (bioRxiv, 2024).
No constants are given. Whether binding was seen depends on the method and setting.

Experiments:
[1] = molecular target: T1, mouse SPO11–TOP6BL complex (1:1) (mouse) (UniProt Q9WTK8+J3QMY9); test: mass photometry; Refeyn OneMP; 28 nM protein; 25 mM HEPES-NaOH pH 7.5, 150 mM NaCl, 2 mM DTT; with 5 mM ATP; both purified
[2] = molecular target: T1, mouse SPO11–TOP6BL complex (1:1) (mouse); test: SEC; Superdex 200 Increase 10/300 GL after anti-Flag M2 affinity purification of the co-expressed proteins; lysis buffer 25 mM HEPES-NaOH pH 7.5, 500 mM NaCl; both purified
[3] = molecular target: T1, mouse SPO11–TOP6BL complex (1:1) (mouse); test: mass photometry; Refeyn OneMP; 28 nM protein; 25 mM HEPES-NaOH pH 7.5, 150 mM NaCl, 2 mM DTT; without ATP; both purified

binding [1]: no binding (tested: 28 nM)
binding [2]: no binding
binding [3]: no binding (tested: 28 nM)
B1: mouse SPO11–TOP6BL complex (1:1) (complex, UniProt Q9WTK8-1 1-396; J3QMY9-1 1-579)
chain 1: MAFAPMGPEASFFDALDRHRASLLAMVKRGAGETPAGATRVASSSEVLTAIENIIQDIIKSLARNEVPAFTIDNRSSWENIMFDDSVGLRMIPQCTTRKIRSDSPKSVKKFALILKVLSMIYKLIQSDTYATKRDIYYTDSQLFGNQAAVDSAIDDISCMLKVPRRSLHVLSTSKGLIAGNLRYMEEDGTRVQCTCSATATAVPTNIQGMQHLITDAKFLLIVEKDATFQRLLDDNFCSRMSPCIMVTGKGVPDLNTRLLVKKLWDTFHIPVFTLVDADPYGIEIMCIYKYGSMSMSFEAHNLTIPTIRWLGLLPSDIQRLNIPKDSLIPLTKHDQMKLDSILKRPYITYQPLWKKELEMMADSKMKAEIQALTLLSSDYLSRVYLPNKLRFGGWI
chain 2: MERTALAVCEILRYLIIHWKCEAGTAKGTLLDGQLVISIEALRSKHLPDSLHCIITIASTRSVYGGLNFKKFLQEIQPALPRLSAKLALASEEGGRSQDASGIAPCQVTFEVDENSQSLMTDCLVIKHFLRKIIIVHHKLKFSFSVAVNGTLSAETFGAENEPTLRLDNGVTLVVGFQRYVSKPKLNWSEAHCSRIHPVLGHPAPLFIPDAKADTGLLGELTLTPAAALCPSPKGFSSQLCRISSVSIFLYGPLGLPLLSSDQDQPSTAVFRDTSYFIDWKKYNLFMVPNLDLNLDTQSVLPDVNYKAESPEGNQSQNMNAQGPALLLFLFVDFQSDVPVQQAKIWGLHTLLTAHLSAILSESRSTVQQSIQSAVDQVWQLYHHDAKTQQRLQASLSVAVNSIMSVLTGSTRSSFRKTCLQALEAADTQEFGVKLHRIFYDITQHQFLKHCSCDTEQHLTPEKNISAQNTKDQHKNIAQEFPEESIGQAENKRPKRGSPNHGREESRVLGSARDRSPPKSATRDRELTEVSLTARGSQTQAAHGRAQAAEAASPAGGLEDLWLQEVSNLSEWLNPGHRS
